Reference: PubChem BioAssay AID1259308 (NCATS, 2017)
Aim: 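Knock-downs that increase output of a recombinant reporter protein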 (primary screen). Cells: human HEK293 embryonic kidney cells stably expressing firefly luciferase (HEK-CMV-Luc2-Hygro). Reagent: single siRNA against human genes, 0.8 pmol siRNA per well. Duration: 72 h. Detection: 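Reporter luminescence and viable-cell signal on separate replicate plates, given as percent of non-targeting control and median/MAD z-scores, plus per-cell luciferase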. Direction: total luciferase, z-score and total luciferase, % of control: higher = more reporter protein produced; luciferase per cell, z-score: higher = more reporter output per viable cell; viable cells, % of control: higher = more viable cells. Hit rule: 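Active when the median/MAD z-score for overall luciferase is greater than 3; a gene was taken forward for validation with new siRNAs if at least two of its three siRNAs passed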. Calls: active = raised luciferase; inactive = no rise.
In all, the deposit lists about 59,000 reagents; below is an unselected part. About 1,510 of all reagents (2.6%) were called active. 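Calls use total luciferase alone and ignore viability, so some active siRNAs may act by altering cell number.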 The numbers tell different reagents against one gene apart.

| gene | reagent no. | total luciferase, z-score | total luciferase, % of control | luciferase per cell, z-score | viable cells, % of control | outcome |
| --- | --- | --- | --- | --- | --- | --- |
| PSMD13 (proteasome 26S subunit, non-ATPase 13) | 1 | 2.03 | 122 | 1.66 | 88.4 | inactive |
| PSMD13 (proteasome 26S subunit, non-ATPase 13) | 2 | 0.718 | 96.2 | 1.28 | 76.7 | inactive |
| PSMD13 (proteasome 26S subunit, non-ATPase 13) | 3 | 1.12 | 104 | 1.45 | 79.5 | inactive |
| RGS6 (regulator of G protein signaling 6) | 1 | 0.148 | 84.8 | 0.265 | 88.4 | inactive |
| RGS6 (regulator of G protein signaling 6) | 2 | 0.261 | 87.1 | 0.575 | 83.6 | inactive |
| RGS6 (regulator of G protein signaling 6) | 3 | 3.43 | 150 | 2.68 | 82.8 | active |
| STPG3 (sperm-tail PG-rich repeat containing 3) | 1 | -0.0891 | 80.1 | 1.09 | 67.2 | inactive |
| STPG3 (sperm-tail PG-rich repeat containing 3) | 2 | 2.91 | 140 | 3.19 | 67.4 | inactive |
| STPG3 (sperm-tail PG-rich repeat containing 3) | 3 | -1.45 | 53 | -1.08 | 78.8 | inactive |
| TIMM17B (translocase of inner mitochondrial membrane 17B) | 1 | 2.25 | 127 | 1.7 | 90.6 | inactive |
| TIMM17B (translocase of inner mitochondrial membrane 17B) | 2 | -0.682 | 68.3 | -0.618 | 89.8 | inactive |
| TIMM17B (translocase of inner mitochondrial membrane 17B) | 3 | 0.773 | 97.3 | 0.923 | 85.2 | inactive |
| PPP3CA (protein phosphatase 3 catalytic subunit alpha) | 1 | -0.399 | 73.9 | -0.654 | 98.1 | inactive |
| PPP3CA (protein phosphatase 3 catalytic subunit alpha) | 2 | -0.276 | 76.4 | -0.769 | 105 | inactive |
| PPP3CA (protein phosphatase 3 catalytic subunit alpha) | 3 | 0.266 | 87.2 | -0.301 | 105 | inactive |
| OR12D3 (olfactory receptor family 12 subfamily D member 3) | 1 | 1.04 | 103 | 0.577 | 98.5 | inactive |
| OR12D3 (olfactory receptor family 12 subfamily D member 3) | 2 | 1.12 | 104 | 0.708 | 96.6 | inactive |
| OR12D3 (olfactory receptor family 12 subfamily D member 3) | 3 | -0.168 | 78.5 | -0.119 | 90.6 | inactive |
| TSHB (thyroid stimulating hormone subunit beta) | 1 | 0.671 | 95.2 | 0.79 | 86.4 | inactive |
| TSHB (thyroid stimulating hormone subunit beta) | 2 | 0.0484 | 82.8 | 0.649 | 78 | inactive |
| TSHB (thyroid stimulating hormone subunit beta) | 3 | -0.711 | 67.7 | -0.48 | 85.9 | inactive |
| PCNP (PEST proteolytic signal containing nuclear protein) | 1 | -0.0403 | 81.1 | 0.574 | 77.9 | inactive |
| PCNP (PEST proteolytic signal containing nuclear protein) | 2 | 0.801 | 97.8 | 0.0524 | 108 | inactive |
| PCNP (PEST proteolytic signal containing nuclear protein) | 3 | -0.0429 | 81 | -0.328 | 98.7 | inactive |
| IGFALS | 1 | -1.71 | 47.9 | -0.858 | 67 | inactive |
| IGFALS | 2 | -0.962 | 62.8 | -0.0684 | 71.4 | inactive |
| IGFALS | 3 | 0.437 | 90.6 | 0.386 | 91.4 | inactive |
| CORO1C (coronin 1C) | 1 | 1.63 | 114 | 1.19 | 93.3 | inactive |
| CORO1C (coronin 1C) | 2 | 0.751 | 96.8 | -0.0341 | 109 | inactive |
| CORO1C (coronin 1C) | 3 | 0.415 | 90.1 | -0.581 | 117 | inactive |
| ISM2 (isthmin 2) | 1 | 0.544 | 92.7 | 1.12 | 77.2 | inactive |
| ISM2 (isthmin 2) | 2 | 0.591 | 93.6 | 0.162 | 100 | inactive |
| ISM2 (isthmin 2) | 3 | -0.494 | 72.1 | -0.811 | 99.7 | inactive |
| FTSJ3 (FtsJ RNA 2'-O-methyltransferase 3) | 1 | -1.85 | 45.1 | -2.91 | 108 | inactive |
| FTSJ3 (FtsJ RNA 2'-O-methyltransferase 3) | 2 | -0.21 | 77.7 | 0.102 | 84.5 | inactive |
| FTSJ3 (FtsJ RNA 2'-O-methyltransferase 3) | 3 | -0.952 | 62.9 | -1.14 | 94.9 | inactive |
| E4F1 (E4F transcription factor 1) | 1 | 0.0095 | 82.1 | -0.37 | 101 | inactive |
| E4F1 (E4F transcription factor 1) | 2 | 0.402 | 89.9 | -0.011 | 101 | inactive |
| E4F1 (E4F transcription factor 1) | 3 | -0.69 | 68.2 | 0.123 | 73.7 | inactive |
| TEX13A (testis expressed 13A) | 1 | 0.966 | 101 | 0.334 | 103 | inactive |
| TEX13A (testis expressed 13A) | 2 | 1.43 | 110 | 1.32 | 87 | inactive |
| TEX13A (testis expressed 13A) | 3 | 1.16 | 105 | 1.38 | 81.6 | inactive |
| GRIP2 (glutamate receptor interacting protein 2) | 1 | -0.178 | 78.3 | 0.0945 | 85.4 | inactive |
| GRIP2 (glutamate receptor interacting protein 2) | 2 | -0.663 | 68.7 | -0.55 | 88.7 | inactive |
| GRIP2 (glutamate receptor interacting protein 2) | 3 | -0.727 | 67.4 | -0.771 | 92.3 | inactive |
| DBF4B (DBF4B-CDC7 kinase regulatory subunit) | 1 | -0.275 | 76.4 | -0.966 | 110 | inactive |
| DBF4B (DBF4B-CDC7 kinase regulatory subunit) | 2 | 1.13 | 104 | 0.98 | 90.1 | inactive |
| DBF4B (DBF4B-CDC7 kinase regulatory subunit) | 3 | 0.226 | 86.4 | -0.0147 | 96.9 | inactive |
| WDR41 (WD repeat domain 41) | 1 | 0.414 | 90.1 | -0.0155 | 101 | inactive |
| WDR41 (WD repeat domain 41) | 2 | -0.318 | 75.6 | -1.24 | 117 | inactive |
| WDR41 (WD repeat domain 41) | 3 | -0.507 | 71.8 | -0.025 | 80.8 | inactive |
| PCNX4 (pecanex 4) | 1 | -2.14 | 39.4 | -2.27 | 80 | inactive |
| PCNX4 (pecanex 4) | 2 | -0.233 | 77.2 | -0.69 | 104 | inactive |
| PCNX4 (pecanex 4) | 3 | 0.0242 | 82.4 | -0.512 | 105 | inactive |
| KRTAP6-3 (keratin associated protein 6-3) | 1 | 2.17 | 125 | 1.81 | 86.8 | inactive |
| KRTAP6-3 (keratin associated protein 6-3) | 2 | -0.662 | 68.7 | -0.906 | 97.5 | inactive |
| KRTAP6-3 (keratin associated protein 6-3) | 3 | -2.46 | 33 | -1.53 | 55.2 | inactive |
| WASHC5 (WASH complex subunit 5) | 1 | -0.143 | 79 | -0.666 | 105 | inactive |
| WASHC5 (WASH complex subunit 5) | 2 | 0.33 | 88.4 | -0.151 | 103 | inactive |
| WASHC5 (WASH complex subunit 5) | 3 | -1.29 | 56.3 | -1.09 | 83.7 | inactive |
| OR2T34 (olfactory receptor family 2 subfamily T member 34) | 1 | -0.185 | 78.2 | 0.24 | 82 | inactive |
| OR2T34 (olfactory receptor family 2 subfamily T member 34) | 2 | -0.576 | 70.4 | 0.36 | 71.6 | inactive |
| OR2T34 (olfactory receptor family 2 subfamily T member 34) | 3 | -0.514 | 71.7 | -0.793 | 98.7 | inactive |
| EXO5 (exonuclease 5) | 1 | 0.715 | 96.1 | 2.04 | 62.8 | inactive |
| EXO5 (exonuclease 5) | 2 | -0.0796 | 80.3 | -0.557 | 104 | inactive |
| EXO5 (exonuclease 5) | 3 | -0.0541 | 80.8 | -0.716 | 109 | inactive |
| LINC02389 (long independently transcribed non-coding RNA 2389) | 1 | -0.0593 | 80.7 | -0.592 | 105 | inactive |
| LINC02389 (long independently transcribed non-coding RNA 2389) | 2 | 0.262 | 87.1 | 1.93 | 58.5 | inactive |
| LINC02389 (long independently transcribed non-coding RNA 2389) | 3 | -1.37 | 54.6 | -1.17 | 83 | inactive |
| ARHGDIG (Rho GDP dissociation inhibitor gamma) | 1 | -0.972 | 62.5 | -1.37 | 100 | inactive |
| ARHGDIG (Rho GDP dissociation inhibitor gamma) | 2 | -1.28 | 56.5 | -1.36 | 90.2 | inactive |
| ARHGDIG (Rho GDP dissociation inhibitor gamma) | 3 | 0.949 | 101 | 0.58 | 96.6 | inactive |
| LORICRIN (loricrin cornified envelope precursor protein) | 1 | 2.92 | 140 | 2.57 | 79.6 | inactive |
| LORICRIN (loricrin cornified envelope precursor protein) | 2 | -0.198 | 77.9 | 0.203 | 82.6 | inactive |
| LORICRIN (loricrin cornified envelope precursor protein) | 3 | -0.773 | 66.5 | -1.47 | 109 | inactive |

Taken from above.
CORO1C (coronin 1C) #2, total luciferase, z-score = 0.751
Value for WDR41 (WD repeat domain 41) #3 in “total luciferase, % of control”: 71.8
GRIP2 (glutamate receptor interacting protein 2) #2, total luciferase, % of control: 68.7
Entry for TEX13A (testis expressed 13A) #3 under “outcome”: inactive
Value for ISM2 (isthmin 2) #2 in “total luciferase, % of control”: 93.6
Entry of OR12D3 (olfactory receptor family 12 subfamily D member 3) #1 under “total luciferase, z-score”: 1.04
